Data as given in PubChem BioAssay AID504804 (Drosophila RNAi Screening Center, 2011)

Test: 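dsRNAs that improve Kc cell survival under doxorubicin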 (primary screen)
System: Drosophila Kc cells
Reagent: long dsRNA against Drosophila genes, 0.5 µg dsRNA per well
Time to read-out: 96 h (48 h knock-down, then 48 h drug)
Challenge: doxorubicin 5 µg/ml for 48 h, added 48 h after dsRNA
Measurement: 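Luminescent ATP counts per replicate, not normalised, reflecting viable cells after 48 h dsRNA knock-down followed by 48 h of 5 µg/ml doxorubicin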
Scale: raw ATP luminescence: higher = more viable cells, protection from doxorubicin
Hit rule: 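z-score of 2 or more over plate mean in both duplicates, retained only when retests and separate dsRNAs confirm the protection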
The screen tested about 19,000 reagents; below is an unselected part of those with a known target gene and a result. In the full data, 47 (0.25%) were called active. 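Signals are raw, not normalised; exact z-scores behind calls not deposited; actives needed confirmation, so some wells reaching 2 SD are inactive.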 Names joined by + are all predicted targets of the reagent.

target | DRSC id | raw ATP luminescence, replicate 1 | raw ATP luminescence, replicate 2 | outcome
PCNA2 (GeneID 35257) | DRSC02030 | 55467 | 54543 | inactive
CG17928 (GeneID 35009) | DRSC02644 | 80267 | 83290 | inactive
Opa1 (GeneID 36578) | DRSC07191 | 66347 | 43870 | inactive
Gr47a (GeneID 36094) | DRSC06221 | 47363 | 75653 | inactive
CG32833 (GeneID 37650) | DRSC04596 | 73517 | 62947 | inactive
Vsp37A (GeneID 31006) | DRSC18794 | 41390 | 50660 | inactive
Tim10 + CG42497 | DRSC04664 | 67903 | 65640 | inactive
CG10097 + CG10096 | DRSC14189 | 58597 | 33387 | inactive
CG10097 + CG10096 | DRSC14190 | 49270 | 47643 | inactive
CG31688 (GeneID 35314) | DRSC02682 | 59120 | 70767 | inactive
HHEX (GeneID 42495) | DRSC16186 | 36470 | 36510 | inactive
CG11779 (GeneID 42298) | DRSC14384 | 31477 | 48030 | inactive
beat-Vc (GeneID 41575) | DRSC12927 | 2.18e5 | 2.62e5 | inactive
beat-Vc (GeneID 41575) | DRSC14849 | 45923 | 50053 | inactive
CG34433 (GeneID 5740702) | DRSC15077 | 73220 | 46990 | inactive
CG9624 (GeneID 41730) | DRSC16523 | 1.11e5 | 69230 | inactive
CG32379 (GeneID 326211) | DRSC10318 | 81643 | 1.08e5 | inactive
AstA-R2 (GeneID 43393) | DRSC14171 | 65230 | 39120 | inactive
Bruce (GeneID 41260) | DRSC16015 | 69570 | 45280 | inactive
ND5 (retired record) (GeneID 192478) | DRSC21281 | 2.82e5 | 2.73e5 | inactive
CG13033 (GeneID 39839) | DRSC09913 | 54700 | 44067 | inactive
Obp56c (GeneID 170882) | DRSC06552 | 2.02e5 | 2.22e5 | inactive
CG14183 (GeneID 40192) | DRSC10182 | 20453 | 17397 | inactive
tyn (GeneID 3354987) | DRSC20652 | 3.68e5 | 5.05e5 | inactive
CG14718 (GeneID 41413) | DRSC14941 | 44557 | 26743 | inactive
CG6216 (GeneID 39257) | DRSC10606 | 92413 | 67533 | inactive
Ugt36D1 (GeneID 35138) | DRSC02600 | 90543 | 72620 | inactive
Naa60 (GeneID 39142) | DRSC10301 | 97030 | 85210 | inactive
TwdlV (GeneID 40537) | DRSC12226 | 69397 | 71193 | inactive
Fnta (GeneID 33682) | DRSC00557 | 1.11e5 | 87880 | inactive
Indy (GeneID 40049) | DRSC10393 | 21543 | 20207 | inactive
CG12716 (GeneID 32248) | DRSC19493 | 3.59e5 | 3.35e5 | inactive
pasi1 (GeneID 42139) | DRSC16299 | 29230 | 25060 | inactive
Apl (GeneID 59216) | DRSC10350 | 86913 | 59203 | inactive
PH4alphaNE2 (GeneID 43628) | DRSC16544 | 43220 | 45440 | inactive
CG13097 (GeneID 34184) | DRSC02199 | 1.08e5 | 89657 | inactive
CG8891 (GeneID 33718) | DRSC03120 | 20563 | 19523 | inactive
pds5 (GeneID 36286) | DRSC06670 | 65710 | 51630 | inactive
CG17977 (GeneID 50251) | DRSC06700 | 47673 | 76583 | inactive

Limited to “raw ATP luminescence, replicate 2” (6 entries from above):
CG11779 (GeneID 42298) [DRSC14384]: 48030
beat-Vc (GeneID 41575) [DRSC12927]: 2.62e5
beat-Vc (GeneID 41575) [DRSC14849]: 50053
CG34433 (GeneID 5740702) [DRSC15077]: 46990
CG9624 (GeneID 41730) [DRSC16523]: 69230
CG32379 (GeneID 326211) [DRSC10318]: 1.08e5

Additional records follow:
target | DRSC id | raw ATP luminescence, replicate 1 | raw ATP luminescence, replicate 2 | outcome
exex (GeneID 38884) | DRSC10972 | 72247 | 86993 | inactive
Cad96Ca (GeneID 43026) | DRSC14220 | 94280 | 75010 | inactive
Cad96Ca (GeneID 43026) | DRSC16693 | 90380 | 58660 | inactive
ova (GeneID 34362) | DRSC02879 | 70850 | 61517 | inactive
CG34029 (GeneID 3885592) | DRSC03909 | 77010 | 74823 | inactive
CG11986 (GeneID 41083) | DRSC14461 | 1.01e5 | 34840 | inactive
PPO2 (GeneID 35910) | DRSC07102 | 62683 | 48580 | inactive
CG33757 (GeneID 3772602) | DRSC05159 | 84140 | 99853 | inactive
CG9014 (GeneID 34777) | DRSC01979 | 72950 | 77477 | inactive
Obp50c + Obp50b | DRSC05482 | 87260 | 87857 | inactive
CG31265 (GeneID 42068) | DRSC15745 | 65960 | 81540 | inactive
CG5961 (GeneID 41541) | DRSC15927 | 37680 | 25507 | inactive
levy (GeneID 37728) | DRSC04289 | 44663 | 59050 | inactive
CG10681 (GeneID 39425) | DRSC09777 | 34887 | 34677 | inactive
CCDC151 (GeneID 39345) | DRSC10131 | 89130 | 67843 | inactive
Smyd4-2 (GeneID 39414) | DRSC10126 | 63390 | 60233 | inactive
mof (GeneID 31518) | DRSC18795 | 37340 | 43270 | inactive
eEF5 (GeneID 37846) | DRSC04681 | 32023 | 48423 | inactive
bou (GeneID 31644) | DRSC17924 | 38030 | 48470 | inactive
GrlHz (GeneID 37648) | DRSC04424 | 81647 | 52920 | inactive
CG9459 (GeneID 41213) | DRSC16496 | 56040 | 53603 | inactive
Cyp6a8 (GeneID 36666) | DRSC07384 | 76407 | 61770 | inactive
DCP1 (GeneID 37790) | DRSC04091 | 71887 | 71657 | inactive
chm (GeneID 43928) | DRSC03341 | 1.15e5 | 57413 | inactive
Blimp-1 (GeneID 38638) | DRSC10496 | 56303 | 65430 | inactive
Lamtor5 (GeneID 31137) | DRSC18491 | 51350 | 46230 | inactive
CG15547 (GeneID 43661) | DRSC15085 | 52670 | 35120 | inactive
Chd64 (GeneID 38490) | DRSC08649 | 34893 | 32443 | inactive
idc (GeneID 42393) | DRSC15680 | 63670 | 57593 | inactive
Oamb (GeneID 43982) | DRSC13433 | 1.60e5 | 1.80e5 | inactive
Oamb (GeneID 43982) | DRSC15120 | 47280 | 44150 | inactive
Oamb (GeneID 43982) | DRSC16763 | 69390 | 82490 | inactive
CG15533 (GeneID 43612) | DRSC15069 | 39020 | 38090 | inactive
CG4393 (GeneID 42764) | DRSC15573 | 86360 | 69770 | inactive
RhoGAP19D (GeneID 33048) | DRSC20500 | 3.21e5 | 3.46e5 | inactive
CG10005 (GeneID 41451) | DRSC14172 | 46090 | 48760 | inactive
CG33333 (GeneID 2768672) | DRSC13233 | 1.79e5 | 2.29e5 | inactive
CG10492 (GeneID 35177) | DRSC02064 | 31733 | 31907 | inactive
fuss (GeneID 43835) | DRSC17200 | 62700 | 61170 | inactive
smash (GeneID 40583) | DRSC12139 | 23263 | 20170 | inactive
smash (GeneID 40583) | DRSC12239 | 67337 | 51233 | inactive
CG14763 (GeneID 35757) | DRSC06497 | 30623 | 66597 | inactive
NC2alpha (GeneID 37471) | DRSC04059 | 91893 | 82707 | inactive
psidin (GeneID 42389) | DRSC15660 | 38150 | 42030 | inactive
Mic26-27 (GeneID 41959) | DRSC15913 | 49003 | 48540 | inactive
